These results are taken from PMC10938740.

Protein sequences, listed by entry. Tags and fused reporters are not part of them.
UniProt P52701: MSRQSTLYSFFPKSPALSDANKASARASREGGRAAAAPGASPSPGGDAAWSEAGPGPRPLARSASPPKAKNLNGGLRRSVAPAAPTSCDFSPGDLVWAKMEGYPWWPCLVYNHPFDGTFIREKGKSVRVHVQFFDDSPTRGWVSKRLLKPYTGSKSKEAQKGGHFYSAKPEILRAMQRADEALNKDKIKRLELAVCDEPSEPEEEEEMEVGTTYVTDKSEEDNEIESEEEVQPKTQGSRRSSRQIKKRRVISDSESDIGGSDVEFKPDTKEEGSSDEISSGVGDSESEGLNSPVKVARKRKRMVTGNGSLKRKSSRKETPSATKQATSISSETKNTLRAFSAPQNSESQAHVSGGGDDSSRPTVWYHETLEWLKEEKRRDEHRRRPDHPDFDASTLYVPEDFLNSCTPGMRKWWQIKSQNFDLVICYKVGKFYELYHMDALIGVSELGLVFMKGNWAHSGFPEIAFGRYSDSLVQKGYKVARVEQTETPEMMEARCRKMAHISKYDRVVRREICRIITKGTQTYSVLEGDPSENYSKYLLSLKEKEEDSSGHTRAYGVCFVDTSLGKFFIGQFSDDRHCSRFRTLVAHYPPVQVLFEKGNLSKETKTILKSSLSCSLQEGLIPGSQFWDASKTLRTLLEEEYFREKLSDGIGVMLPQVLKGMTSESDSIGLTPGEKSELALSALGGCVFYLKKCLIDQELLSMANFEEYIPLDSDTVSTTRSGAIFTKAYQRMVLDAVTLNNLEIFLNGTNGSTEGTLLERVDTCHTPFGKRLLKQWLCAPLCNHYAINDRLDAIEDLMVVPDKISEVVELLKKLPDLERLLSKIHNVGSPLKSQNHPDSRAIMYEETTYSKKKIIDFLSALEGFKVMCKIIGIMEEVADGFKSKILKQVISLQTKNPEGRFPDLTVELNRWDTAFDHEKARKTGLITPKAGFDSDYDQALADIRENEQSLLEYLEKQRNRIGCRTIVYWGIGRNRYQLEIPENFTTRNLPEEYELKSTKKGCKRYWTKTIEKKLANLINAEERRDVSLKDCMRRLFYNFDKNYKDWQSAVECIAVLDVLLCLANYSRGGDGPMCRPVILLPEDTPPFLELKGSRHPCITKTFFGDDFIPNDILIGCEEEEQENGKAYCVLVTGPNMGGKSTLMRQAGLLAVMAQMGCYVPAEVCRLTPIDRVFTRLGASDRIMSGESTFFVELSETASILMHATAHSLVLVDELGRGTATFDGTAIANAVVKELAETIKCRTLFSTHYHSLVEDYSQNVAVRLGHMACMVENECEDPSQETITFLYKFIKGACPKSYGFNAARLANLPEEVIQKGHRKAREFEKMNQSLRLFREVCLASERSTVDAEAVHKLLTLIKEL
UniProt Q92878: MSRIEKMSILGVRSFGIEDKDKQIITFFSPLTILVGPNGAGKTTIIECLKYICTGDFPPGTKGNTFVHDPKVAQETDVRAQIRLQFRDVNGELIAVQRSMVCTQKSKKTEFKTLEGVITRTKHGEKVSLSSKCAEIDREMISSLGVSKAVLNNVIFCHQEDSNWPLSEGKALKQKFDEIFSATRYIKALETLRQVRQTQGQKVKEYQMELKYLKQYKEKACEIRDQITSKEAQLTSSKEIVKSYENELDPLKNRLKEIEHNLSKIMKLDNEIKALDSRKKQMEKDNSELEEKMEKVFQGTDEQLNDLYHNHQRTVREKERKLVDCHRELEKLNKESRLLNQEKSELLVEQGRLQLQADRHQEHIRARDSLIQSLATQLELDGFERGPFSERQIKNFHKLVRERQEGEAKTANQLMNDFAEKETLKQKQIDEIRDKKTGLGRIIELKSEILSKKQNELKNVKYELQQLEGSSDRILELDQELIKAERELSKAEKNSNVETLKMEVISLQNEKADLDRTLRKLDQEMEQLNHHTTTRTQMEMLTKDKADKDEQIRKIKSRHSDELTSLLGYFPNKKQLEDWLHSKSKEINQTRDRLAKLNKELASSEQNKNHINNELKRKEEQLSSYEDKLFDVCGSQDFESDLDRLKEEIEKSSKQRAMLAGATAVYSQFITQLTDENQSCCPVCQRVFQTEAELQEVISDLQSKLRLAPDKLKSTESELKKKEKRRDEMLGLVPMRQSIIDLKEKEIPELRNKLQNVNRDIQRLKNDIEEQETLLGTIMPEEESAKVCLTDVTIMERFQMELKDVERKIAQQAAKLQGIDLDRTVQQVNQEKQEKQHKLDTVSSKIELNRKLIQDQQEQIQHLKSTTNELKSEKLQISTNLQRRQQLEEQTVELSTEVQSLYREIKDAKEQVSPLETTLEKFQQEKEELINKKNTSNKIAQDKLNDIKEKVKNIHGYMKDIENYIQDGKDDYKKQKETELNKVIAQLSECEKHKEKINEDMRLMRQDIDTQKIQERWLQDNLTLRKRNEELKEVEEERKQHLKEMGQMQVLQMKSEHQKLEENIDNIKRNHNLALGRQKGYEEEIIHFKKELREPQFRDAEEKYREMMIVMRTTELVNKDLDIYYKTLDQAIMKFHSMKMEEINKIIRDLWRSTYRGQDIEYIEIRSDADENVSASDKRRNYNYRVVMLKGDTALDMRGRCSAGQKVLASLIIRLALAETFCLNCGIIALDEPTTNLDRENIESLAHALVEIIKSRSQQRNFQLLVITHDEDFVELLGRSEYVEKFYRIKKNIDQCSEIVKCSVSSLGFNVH
UniProt P54727: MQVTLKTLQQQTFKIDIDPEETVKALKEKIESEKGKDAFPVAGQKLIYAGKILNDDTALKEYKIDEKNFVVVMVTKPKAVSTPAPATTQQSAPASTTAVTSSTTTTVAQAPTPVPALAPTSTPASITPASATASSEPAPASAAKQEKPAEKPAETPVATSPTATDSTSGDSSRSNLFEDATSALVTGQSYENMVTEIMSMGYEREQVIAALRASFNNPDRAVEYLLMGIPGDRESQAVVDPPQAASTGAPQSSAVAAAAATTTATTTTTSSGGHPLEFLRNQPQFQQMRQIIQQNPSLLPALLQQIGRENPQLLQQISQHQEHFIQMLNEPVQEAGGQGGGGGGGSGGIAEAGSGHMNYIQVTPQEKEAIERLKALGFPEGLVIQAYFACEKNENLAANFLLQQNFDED
UniProt Q13111: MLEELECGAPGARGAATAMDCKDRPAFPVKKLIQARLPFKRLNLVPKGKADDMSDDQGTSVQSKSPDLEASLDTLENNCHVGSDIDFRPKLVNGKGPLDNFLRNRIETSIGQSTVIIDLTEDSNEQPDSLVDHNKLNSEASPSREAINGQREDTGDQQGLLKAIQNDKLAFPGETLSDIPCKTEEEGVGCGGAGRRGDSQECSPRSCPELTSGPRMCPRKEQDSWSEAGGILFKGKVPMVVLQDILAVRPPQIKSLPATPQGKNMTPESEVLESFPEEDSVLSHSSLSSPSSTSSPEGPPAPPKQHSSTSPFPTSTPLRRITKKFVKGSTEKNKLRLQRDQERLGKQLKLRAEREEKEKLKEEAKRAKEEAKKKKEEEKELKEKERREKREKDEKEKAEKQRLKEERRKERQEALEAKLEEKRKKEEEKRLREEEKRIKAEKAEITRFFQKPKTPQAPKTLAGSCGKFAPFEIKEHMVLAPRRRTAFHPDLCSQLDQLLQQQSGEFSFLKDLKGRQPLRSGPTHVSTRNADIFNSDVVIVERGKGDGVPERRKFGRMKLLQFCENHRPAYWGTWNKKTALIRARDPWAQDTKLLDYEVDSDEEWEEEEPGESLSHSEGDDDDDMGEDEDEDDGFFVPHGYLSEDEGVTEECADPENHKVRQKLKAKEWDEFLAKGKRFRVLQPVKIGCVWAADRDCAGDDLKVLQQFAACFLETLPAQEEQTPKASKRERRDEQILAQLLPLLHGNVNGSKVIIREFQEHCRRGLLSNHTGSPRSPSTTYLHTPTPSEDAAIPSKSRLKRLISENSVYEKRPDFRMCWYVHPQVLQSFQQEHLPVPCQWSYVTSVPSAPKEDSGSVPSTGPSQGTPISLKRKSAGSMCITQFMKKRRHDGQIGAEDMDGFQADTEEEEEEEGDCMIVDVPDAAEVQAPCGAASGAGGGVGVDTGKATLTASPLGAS
UniProt Q12888: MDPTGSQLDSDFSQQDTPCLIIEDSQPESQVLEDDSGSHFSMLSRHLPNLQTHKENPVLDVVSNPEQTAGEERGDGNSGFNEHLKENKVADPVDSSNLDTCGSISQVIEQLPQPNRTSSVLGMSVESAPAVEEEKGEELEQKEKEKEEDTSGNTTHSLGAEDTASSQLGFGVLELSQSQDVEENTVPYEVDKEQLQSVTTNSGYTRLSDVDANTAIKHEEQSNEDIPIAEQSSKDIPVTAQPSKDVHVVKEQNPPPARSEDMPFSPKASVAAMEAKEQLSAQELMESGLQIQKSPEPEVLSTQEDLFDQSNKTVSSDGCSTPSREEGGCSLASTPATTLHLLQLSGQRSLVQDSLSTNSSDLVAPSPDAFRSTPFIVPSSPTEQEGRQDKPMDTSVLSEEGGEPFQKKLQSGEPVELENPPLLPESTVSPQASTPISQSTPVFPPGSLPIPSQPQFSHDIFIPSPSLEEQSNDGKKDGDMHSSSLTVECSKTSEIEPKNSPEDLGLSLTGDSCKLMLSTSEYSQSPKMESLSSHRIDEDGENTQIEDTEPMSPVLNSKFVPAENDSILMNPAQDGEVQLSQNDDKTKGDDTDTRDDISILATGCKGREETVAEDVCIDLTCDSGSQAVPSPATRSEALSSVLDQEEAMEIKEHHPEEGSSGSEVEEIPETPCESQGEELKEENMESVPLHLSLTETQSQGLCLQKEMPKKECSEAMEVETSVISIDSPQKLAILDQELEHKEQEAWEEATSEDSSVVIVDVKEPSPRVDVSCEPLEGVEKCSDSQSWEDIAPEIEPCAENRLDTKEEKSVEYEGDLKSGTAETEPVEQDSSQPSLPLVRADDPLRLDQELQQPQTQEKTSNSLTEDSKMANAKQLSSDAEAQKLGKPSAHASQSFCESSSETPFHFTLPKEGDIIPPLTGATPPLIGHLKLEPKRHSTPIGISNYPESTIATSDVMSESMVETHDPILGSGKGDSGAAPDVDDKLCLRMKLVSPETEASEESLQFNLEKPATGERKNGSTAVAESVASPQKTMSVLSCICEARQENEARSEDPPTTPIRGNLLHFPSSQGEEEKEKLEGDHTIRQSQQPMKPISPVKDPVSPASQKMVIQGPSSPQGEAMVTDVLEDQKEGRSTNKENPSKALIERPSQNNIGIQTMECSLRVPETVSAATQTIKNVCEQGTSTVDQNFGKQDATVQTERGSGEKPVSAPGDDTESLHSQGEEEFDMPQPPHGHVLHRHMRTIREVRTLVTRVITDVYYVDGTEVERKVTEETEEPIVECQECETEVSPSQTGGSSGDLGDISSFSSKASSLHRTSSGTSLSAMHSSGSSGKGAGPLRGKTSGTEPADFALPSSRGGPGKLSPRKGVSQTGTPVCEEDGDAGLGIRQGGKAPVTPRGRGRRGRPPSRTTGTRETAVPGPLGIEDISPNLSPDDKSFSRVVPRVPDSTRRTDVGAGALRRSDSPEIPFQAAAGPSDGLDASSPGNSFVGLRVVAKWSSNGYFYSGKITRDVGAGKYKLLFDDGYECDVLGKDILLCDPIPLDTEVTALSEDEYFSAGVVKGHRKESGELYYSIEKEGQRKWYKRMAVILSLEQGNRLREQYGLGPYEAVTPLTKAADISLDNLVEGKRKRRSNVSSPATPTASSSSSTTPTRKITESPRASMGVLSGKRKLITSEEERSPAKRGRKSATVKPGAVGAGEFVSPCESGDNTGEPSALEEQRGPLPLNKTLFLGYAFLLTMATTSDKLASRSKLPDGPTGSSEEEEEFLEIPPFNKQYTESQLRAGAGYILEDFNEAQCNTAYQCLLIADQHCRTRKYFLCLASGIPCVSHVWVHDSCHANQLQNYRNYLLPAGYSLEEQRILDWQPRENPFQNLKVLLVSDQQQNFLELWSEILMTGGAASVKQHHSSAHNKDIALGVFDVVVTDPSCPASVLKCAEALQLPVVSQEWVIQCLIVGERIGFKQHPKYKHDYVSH

This assay concerns the target T1, TRIM29, endogenous in RWPE-1 (human (endogenous in RWPE-1)) (UniProt Q14134).
T1 sequence: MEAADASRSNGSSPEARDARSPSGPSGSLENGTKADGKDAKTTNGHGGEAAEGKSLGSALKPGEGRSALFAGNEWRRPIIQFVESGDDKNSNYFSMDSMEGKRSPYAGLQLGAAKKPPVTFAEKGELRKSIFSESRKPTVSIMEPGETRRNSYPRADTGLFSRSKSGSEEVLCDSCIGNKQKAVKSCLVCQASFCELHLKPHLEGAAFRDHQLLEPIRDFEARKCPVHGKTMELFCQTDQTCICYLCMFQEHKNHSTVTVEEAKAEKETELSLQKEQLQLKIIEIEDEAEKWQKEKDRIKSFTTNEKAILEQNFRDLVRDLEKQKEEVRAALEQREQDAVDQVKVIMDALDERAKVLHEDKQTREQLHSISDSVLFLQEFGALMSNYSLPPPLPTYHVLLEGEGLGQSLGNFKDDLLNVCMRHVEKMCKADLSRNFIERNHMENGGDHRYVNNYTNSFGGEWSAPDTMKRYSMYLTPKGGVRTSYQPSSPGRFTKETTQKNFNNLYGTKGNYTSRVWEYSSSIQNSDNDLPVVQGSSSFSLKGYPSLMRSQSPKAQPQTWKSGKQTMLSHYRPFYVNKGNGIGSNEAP
The experiment in a line: affinity purification with mass spectrometry; immunoprecipitation of endogenous TRIM29 from the nuclear fraction of RWPE-1, IgG control, LC-MS/MS of the precipitate.

No constants are given. Whether binding was seen depends on the method and setting. Binding seen in cells or lysates may run through a third protein. These calls come from enrichment with a bait or labelling near it, and not all partners need be listed.

Turning to MSH6 (from UniProt P52701 1-1360), the binding result is reported as “binds”.

With RAD50 (from UniProt Q92878 1-1312), the binding result was “binds”.

Take DDB1 (from UniProt Q16531 1-1140): the binding result is given as “binds”.

On to RAD23B (from UniProt P54727 1-409), for which the binding entry is listed as “binds”.

Consider CHAF1A (from UniProt Q13111 1-956), for which the binding result is on record as “binds”.

Regarding TP53BP1 (from UniProt Q12888 1-1972), the binding result is “binds”.
